# Experimental data published in US5883287A, “Vinyl sulfide compounds and a process for their preparation” (Lumigen, Inc., priority 1997, dated 1999).
# Tests used:
# [1] = Fluoride induced chemiluminescence (TBAF in DMSO); type: physicochemical; conditions: for chemiluminescence on addition to TBAF: addition of isolated dioxetane to 0.1M TBAF in DMSO; for color of chemiluminescence emission: aliquot of reaction solution reacted with 0.1M TBAF in DMSO; for chemiluminescence produced by fluoride triggering: sample of dioxetane, excess TBAF in DMSO (or DMSO/TBAF)
# [2] = Light emission on heating; type: physicochemical; conditions: heated, TLC plate or sample
SMILES,chemiluminescence on addition to TBAF [1],light emission on heating [2],color of chemiluminescence emission [1],chemiluminescence produced by fluoride triggering [1]
"COC1(c2cccc(O[Si](c3ccccc3)(c3ccccc3)C(C)(C)C)c2)OOC12C1CC3CC(C1)CC2C3 (stereo not shown) [Dioxetane 22, 4-(3-t-Butyldiphenylsilyloxyphenyl)-4-methoxyspiro[1,2-dioxetane-3,2'-tricyclo-[3.3.1.1^3,7]decane]]",blue chemiluminescence,blue chemiluminescence,,
"COC1(c2cccc(O[Si](C)(C)C(C)(C)C)c2)OOC12C1CC3CC(C1)CC2C3 (stereo not shown) [Dioxetane 21, 4-(3-t-Butyldimethylsilyloxyphenyl)-4-methoxyspiro[1,2-dioxetane-3,2'-tricyclo-[3.3.1.1^3,7]decane]]",blue chemiluminescence,blue chemiluminescence,,
"Oc1cccc(C2(Oc3ccccc3)OOC23C2CC4CC(C2)CC3C4)c1 (stereo not shown) [Dioxetane 11, 4-(3-Hydroxyphenyl)-4-phenoxyspiro[1,2-dioxetane-3,2'-tricyclo[3.3.1.1^3,7]decane]]",,emitted blue light,blue emission,
"CC(C)OC1(c2cccc(O)c2)OOC12C1CC3CC(C1)CC2C3 (stereo not shown) [Dioxetane 7, 4-Isopropoxy-4-(3-hydroxyphenyl)spiro[1,2-dioxetane-3,2'-tricyclo[3.3.1.1^3,7]decane]]",,emitted blue light,blue emission,
"CC(C)(C)C(=O)Oc1cccc(C2(Sc3ccc(F)cc3)OOC23C2CC4CC(C2)CC3C4)c1 (stereo not shown) [Dioxetane 4, 4-(p-Fluorophenylthio)-4-(3-pivaloyloxyphenyl)spiro[1,2-dioxetane-3,2'tricyclo[3.3.1.1^3,7]decane]]",,emitted light when a sample was heated,yellow emission,red chemiluminescence
"COC1(c2cccc(O)c2)OOC12C1CC3CC(C1)CC2C3 (stereo not shown) [Dioxetane 6, 4-(3-Hydroxyphenyl)-4-methoxyspiro[1,2-dioxetane-3,2'-tricyclo[3.3.1.1^3,7]decane]]",,emitted blue light,blue emission,
"COC1(c2cccc(OC(=O)C(C)(C)C)c2)OOC12C1CC3CC(C1)CC2C3 (stereo not shown) [Dioxetane 20, 4-Methoxy-4-(3-pivaloyloxyphenyl)spiro[1,2-dioxetane-3,2'-tricyclo[3.3.1.1^3,7]decane]]",,emitted blue light,blue emission,
"Oc1cccc(C2(OCC(Cl)(Cl)Cl)OOC23C2CC4CC(C2)CC3C4)c1 (stereo not shown) [Dioxetane 15, 4-(3-Hydroxyphenyl)-4-(2,2,2-trichloroethoxy)spiro[1,2-dibxetane-3,2'-tricyclo[3.3.1.1^3,7]decane]]",,emitted blue-green light,,
"Oc1cccc(C2(Sc3ccc(F)cc3)OOC23C2CC4CC(C2)CC3C4)c1 (stereo not shown) [Dioxetane 3, 4-(p-Fluorophenylthio)-4-(3-hydroxyphenyl)spiro[1,2-dioxetane-3,2'-tricyclo[3.3.1.1^3,7]decane]]",,emitted light when heated,,
"OCCOC1(c2cccc(O)c2)OOC12C1CC3CC(C1)CC2C3 (stereo not shown) [Dioxetane 10, 4-(2-Hydroxyethoxy)-4-(3-hydroxyphenyl)spiro[1,2-dioxetane-3,2'-tricyclo[3.3.1.1^3,7]decane]]",,emitted blue light,blue emission,
"Oc1cccc(C2(Oc3c(F)cccc3F)OOC23C2CC4CC(C2)CC3C4)c1 (stereo not shown) [Dioxetane 19, 4-(2',6'-Difluorophenoxy)-4-(3-hydroxyphenyl)spiro[1,2-dioxetane-3,2'-tricyclo[3.3.1.1^3,7]decane]]",,emitted blue-green light,,
"Oc1cccc(C2(OCC(Cl)Cl)OOC23C2CC4CC(C2)CC3C4)c1 (stereo not shown) [Dioxetane 16, 4-(2,2-Dichloroethoxy)-4-(3-hydroxyphenyl)spiro[1,2-dioxetane-3,2'-tricyclo-[3.3.1.1^3,7]decane]]",,emitted blue-green light,,
"Oc1cccc(C2(SCC(F)(F)F)OOC23C2CC4CC(C2)CC3C4)c1 (stereo not shown) [Dioxetane 5, 4-(2,2,2-trifluoroethylthio)-4-(3-hydroxyphenyl)spiro[1,2-dioxetane-3,2'-tricyclo[3.3.1.1^3,7]decane]]",,light emitted on heating,,orange-yellow light
"C=CCOC1(c2cccc(O)c2)OOC12C1CC3CC(C1)CC2C3 (stereo not shown) [Dioxetane 8, 4-(3-Hydroxyphenyl)-4-(2-propenyloxy)spiro[1,2-dioxetane-3,2'-tricyclo[3.3.1.1^3,7]decane]]",,emitted blue light,blue emission,
"CCSC1(c2cccc(OC(=O)C(C)(C)C)c2)OOC12C1CC3CC(C1)CC2C3 (stereo not shown) [Dioxetane 2, 4-Ethylthio-4-(3-pivaloyloxyphenyl)spiro[1,2-dioxetane-3,2'-tricyclo-[3.3.1.1^3,7]decane]]",,emitted light when heated,,yellow chemiluminescence
"N#CCCOC1(c2cccc(O)c2)OOC12C1CC3CC(C1)CC2C3 (stereo not shown) [Dioxetane 9, 4-(2-Cyanoethoxy)-4-(3-hydroxyphenyl)spiro[1,2-dioxetane-3,2'-tricyclo[3.3.1.1^3,7]decane]]",,emitted blue light,blue emission,
"CCSC1(c2cccc(O)c2)OOC12C1CC3CC(C1)CC2C3 (stereo not shown) [Dioxetane 1, 4-Ethylthio-4-(3-hydroxyphenyl)spiro[1,2-dioxetane-3,2'-tricyclo[3.3.1.1^3,7]decane]]",,,yellow emission,yellow chemiluminescence
